No constants are given. Whether binding was seen depends on the method and setting. Binding seen in cells or lysates may run through a third protein. Some entries that bind do so weakly or less than the wild type. For part of these data: Tags and fused reporters may be left off the sequences shown.
Columns and labels:
GST-LATS1-142-704 = molecular target: T1, GST-LATS1-142-704 (UniProt O95835); experiment: pull-down; GST fusion protein on GST-Sepharose beads (20 uL beads or 10 ug protein) with 1 mL HEK293 total cell lysate, 2 h at 4 C, pulldown buffer 50 mM HEPES pH 7.5, 150 mM NaCl, 10% glycerol, 0.3% CHAPS; western blot; also lysates after siRNA knockdown of LATS1/2 or AMOT (Fig. 3f); only the target purified
T1 sequence: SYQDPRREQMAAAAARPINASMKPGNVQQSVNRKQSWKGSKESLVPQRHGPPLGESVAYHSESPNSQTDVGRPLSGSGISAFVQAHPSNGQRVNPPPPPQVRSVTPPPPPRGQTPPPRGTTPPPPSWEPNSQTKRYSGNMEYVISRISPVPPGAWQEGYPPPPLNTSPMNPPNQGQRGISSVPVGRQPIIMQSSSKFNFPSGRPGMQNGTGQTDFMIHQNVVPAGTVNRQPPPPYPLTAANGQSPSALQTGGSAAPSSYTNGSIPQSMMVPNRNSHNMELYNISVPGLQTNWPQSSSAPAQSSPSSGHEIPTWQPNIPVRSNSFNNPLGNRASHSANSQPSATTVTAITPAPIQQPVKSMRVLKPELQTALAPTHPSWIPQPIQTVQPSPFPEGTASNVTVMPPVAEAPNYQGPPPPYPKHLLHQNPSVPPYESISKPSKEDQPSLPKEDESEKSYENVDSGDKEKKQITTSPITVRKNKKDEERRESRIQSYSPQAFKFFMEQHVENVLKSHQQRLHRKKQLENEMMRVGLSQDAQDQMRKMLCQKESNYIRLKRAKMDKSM

Sequences of proteins named here, by UniProt entry; tags and fusion partners are left off.
UniProt Q9GZV5: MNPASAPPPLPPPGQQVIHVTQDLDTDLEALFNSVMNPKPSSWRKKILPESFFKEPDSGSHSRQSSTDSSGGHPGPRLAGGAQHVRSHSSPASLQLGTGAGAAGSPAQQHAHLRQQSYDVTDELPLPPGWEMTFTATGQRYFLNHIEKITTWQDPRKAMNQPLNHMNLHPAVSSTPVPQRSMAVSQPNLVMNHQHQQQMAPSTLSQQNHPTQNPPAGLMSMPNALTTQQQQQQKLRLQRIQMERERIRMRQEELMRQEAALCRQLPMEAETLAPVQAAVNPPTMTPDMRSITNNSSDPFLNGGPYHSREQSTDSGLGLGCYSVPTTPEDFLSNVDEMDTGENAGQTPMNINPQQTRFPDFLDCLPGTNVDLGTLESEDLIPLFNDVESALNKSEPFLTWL
UniProt P35240: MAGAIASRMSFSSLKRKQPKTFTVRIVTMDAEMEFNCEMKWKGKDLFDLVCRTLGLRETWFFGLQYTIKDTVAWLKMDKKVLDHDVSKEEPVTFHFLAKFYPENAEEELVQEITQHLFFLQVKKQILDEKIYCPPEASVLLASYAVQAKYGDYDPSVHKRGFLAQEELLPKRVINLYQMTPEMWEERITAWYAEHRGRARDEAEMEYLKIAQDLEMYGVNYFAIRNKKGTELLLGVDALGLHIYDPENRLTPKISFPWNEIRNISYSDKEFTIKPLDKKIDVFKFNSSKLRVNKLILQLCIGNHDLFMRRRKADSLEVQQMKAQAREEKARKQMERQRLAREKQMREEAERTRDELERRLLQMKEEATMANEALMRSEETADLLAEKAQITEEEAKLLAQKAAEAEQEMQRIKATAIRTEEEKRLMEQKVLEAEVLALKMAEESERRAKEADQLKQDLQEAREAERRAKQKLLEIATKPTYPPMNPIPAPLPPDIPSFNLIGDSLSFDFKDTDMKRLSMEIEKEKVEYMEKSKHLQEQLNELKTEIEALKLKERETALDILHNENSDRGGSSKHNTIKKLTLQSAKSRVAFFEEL
UniProt Q8NI35: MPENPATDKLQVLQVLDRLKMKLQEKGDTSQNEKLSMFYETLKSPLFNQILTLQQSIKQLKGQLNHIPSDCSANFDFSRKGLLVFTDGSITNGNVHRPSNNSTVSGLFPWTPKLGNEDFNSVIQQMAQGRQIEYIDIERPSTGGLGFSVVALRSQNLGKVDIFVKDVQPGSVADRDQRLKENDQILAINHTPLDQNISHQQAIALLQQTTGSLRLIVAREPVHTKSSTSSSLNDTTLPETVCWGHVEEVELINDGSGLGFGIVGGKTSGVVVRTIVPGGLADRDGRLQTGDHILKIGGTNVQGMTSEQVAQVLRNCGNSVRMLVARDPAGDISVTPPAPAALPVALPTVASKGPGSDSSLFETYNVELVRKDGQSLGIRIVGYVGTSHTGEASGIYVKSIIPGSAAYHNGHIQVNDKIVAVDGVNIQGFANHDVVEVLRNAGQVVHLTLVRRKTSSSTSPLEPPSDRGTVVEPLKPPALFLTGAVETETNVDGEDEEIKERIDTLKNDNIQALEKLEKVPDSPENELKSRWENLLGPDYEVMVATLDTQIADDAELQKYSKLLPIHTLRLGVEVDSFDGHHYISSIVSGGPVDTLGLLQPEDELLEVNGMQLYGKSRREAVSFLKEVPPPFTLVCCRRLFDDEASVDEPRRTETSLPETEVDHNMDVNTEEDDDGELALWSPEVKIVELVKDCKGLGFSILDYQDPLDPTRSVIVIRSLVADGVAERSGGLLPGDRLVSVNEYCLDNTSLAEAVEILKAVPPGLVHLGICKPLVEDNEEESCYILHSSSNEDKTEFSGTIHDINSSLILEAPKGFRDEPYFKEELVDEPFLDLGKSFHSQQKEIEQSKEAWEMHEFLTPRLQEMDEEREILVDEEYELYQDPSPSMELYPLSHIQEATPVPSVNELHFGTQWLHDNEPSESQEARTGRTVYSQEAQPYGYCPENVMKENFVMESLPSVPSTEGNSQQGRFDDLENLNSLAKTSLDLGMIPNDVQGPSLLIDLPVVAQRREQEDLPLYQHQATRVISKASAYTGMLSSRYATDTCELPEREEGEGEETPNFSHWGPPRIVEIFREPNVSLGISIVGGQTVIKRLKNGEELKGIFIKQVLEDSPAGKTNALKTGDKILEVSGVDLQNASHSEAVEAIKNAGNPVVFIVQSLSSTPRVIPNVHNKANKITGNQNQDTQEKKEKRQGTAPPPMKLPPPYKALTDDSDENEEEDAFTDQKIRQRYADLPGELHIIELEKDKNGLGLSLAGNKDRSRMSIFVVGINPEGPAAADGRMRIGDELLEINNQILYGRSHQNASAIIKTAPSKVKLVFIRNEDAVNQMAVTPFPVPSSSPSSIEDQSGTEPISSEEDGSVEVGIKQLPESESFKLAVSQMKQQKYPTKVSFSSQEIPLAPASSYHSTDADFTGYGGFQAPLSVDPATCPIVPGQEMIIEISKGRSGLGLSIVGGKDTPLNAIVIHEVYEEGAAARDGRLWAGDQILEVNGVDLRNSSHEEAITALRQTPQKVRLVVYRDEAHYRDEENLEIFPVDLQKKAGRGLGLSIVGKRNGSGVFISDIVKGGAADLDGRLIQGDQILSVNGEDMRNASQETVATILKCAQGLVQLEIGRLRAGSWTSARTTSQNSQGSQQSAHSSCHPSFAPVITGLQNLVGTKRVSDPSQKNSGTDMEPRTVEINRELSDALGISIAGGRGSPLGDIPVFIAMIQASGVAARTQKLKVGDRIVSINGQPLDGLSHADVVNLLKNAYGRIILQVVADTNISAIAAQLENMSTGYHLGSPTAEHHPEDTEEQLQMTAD

[1] = molecular target: T2, MST1 (human (endogenous in HEK293)) (UniProt Q13043); experiment: co-IP; endogenous MST1 co-immunoprecipitation in cells with or without CD4-FAT1-TM/ICD (Supplementary Fig. 5b)
T2 sequence: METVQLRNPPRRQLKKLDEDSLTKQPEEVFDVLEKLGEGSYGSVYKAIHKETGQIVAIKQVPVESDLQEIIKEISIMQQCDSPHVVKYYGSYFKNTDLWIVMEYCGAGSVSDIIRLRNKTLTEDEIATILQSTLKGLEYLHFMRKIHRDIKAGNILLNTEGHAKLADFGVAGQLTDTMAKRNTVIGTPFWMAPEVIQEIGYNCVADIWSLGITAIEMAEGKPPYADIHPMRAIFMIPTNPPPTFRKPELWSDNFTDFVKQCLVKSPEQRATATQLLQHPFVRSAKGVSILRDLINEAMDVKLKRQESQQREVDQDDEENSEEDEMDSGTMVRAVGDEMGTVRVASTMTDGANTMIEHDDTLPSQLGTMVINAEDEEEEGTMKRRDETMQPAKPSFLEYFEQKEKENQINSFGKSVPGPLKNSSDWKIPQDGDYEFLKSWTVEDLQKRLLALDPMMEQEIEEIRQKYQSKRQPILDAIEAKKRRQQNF

Molecule	binding (GST-LATS1-142-704)	binding [1]
TAZ (from UniProt Q9GZV5 1-400)	binds	
SAV1 (protein, UniProt Q9H4B6 1-383) MLSRKKTKNEVSKPAEVQGKYVKKETSPLLRNLMPSFIRHGPTIPRRTDICLPDSSPNAFSTSGDVVSRNQSFLRTPIQRTPHEIMRRESNRLSAPSYLARSLADVPREYGSSQSFVTEVSFAVENGDSGSRYYYSDNFFDGQRKRPLGDRAHEDYRYYEYNHDLFQRMPQNQGRHASGIGRVAATSLGNLTNHGSEDLPLPPGWSVDWTMRGRKYYIDHNTNTTHWSHPLEREGLPPGWERVESSEFGTYYVDHTNKKAQYRHPCAPSVPRYDQPPPVTYQPQQTERNQSLLVPANPYHTAEIPDWLQVYARAPVKYDHILKWELFQLADLDTYQGMLKLLFMKELEQIVKMYEAYRQALLTELENRKQRQQWYAQQHGKNF	binds	
MOB1A (protein, UniProt Q9H8S9 1-216) MSFLFSSRSSKTFKPKKNIPEGSHQYELLKHAEATLGSGNLRQAVMLPEGEDLNEWIAVNTVDFFNQINMLYGTITEFCTEASCPVMSAGPRYEYHWADGTNIKKPIKCSAPKYIDYLMTWVQDQLDDETLFPSKIGVPFPKNFMSVAKTILKRLFRVYAHIYHQHFDSVMQLQEEAHLNTSFKHFIFFVQEFNLIDRRELAPLQELIEKLGSKDR		binds

The remaining lines, values ahead:

binding (GST-LATS1-142-704)	binding [1]	Molecule
binds	binds	NF2 (from UniProt P35240 1-595)
binds		PATJ (from UniProt Q8NI35 1-1801)

From publication PMC6037762
